Test [1] has as its system C. albicans (Fluconazole resistant). The test is described as follows: Broth microdilution test (MIC, colony counts). The class given is cell-based. Particulars: Candida albicans, no antibody. On the procedure:
(§1) Non-Aspergillus yeast strains used (Table 1) were plated onto Sabouraud's dextrose agar (Oxoid, Basingstoke, UK) and incubated at 37° C. for 24 hours. The strains were identified with the API 20C system (BioMerieux, Marcy L'Etoile, France). If needed, microscopical examinations of morphology on cornmeal agar (Oxoid) was used to confirm the identity.
(§2) For non-Aspergillus strains, suspensions were prepared from individual colonies (diameter≧1 mm) in 5 ml of sterile 0.85% saline to a density of […] as established by counting on a haemocytometer grid. For Aspergillus strains, see below.
(§3) RPMI broth was prepared from RPMI 1640 broth medium (Sigma R7880) supplemented with 0.3 g of glutamine per litre, buffered with 34.6 g of morpholine propanesulfonic acid (MOPS) per litre and adjusted to ph 7.0.
(§4) Twofold dilutions ([…] for amphotericin B and 400 to 0.4 mg/ml for fluconazole) were prepared in RPMI broth starting from the two stock solutions. A 100 μl suspension of the inoculum diluted 1 in 10 (equivalent to 1×10^3 cfu) was added to the microtiter plates. To this was added 50 μl of the antifungal and then 50 μl of the antibody. Antibody was either neat (0.4 mg/mil), or diluted to 1/10or 1/100. When antibody was absent, the 50 μl volume was made up by RPMI. […]
(§5) Colony counts were determined for the wells where there was a visual reduction in yeast growth. […]
For orientation: Dilution methods test growth across graded concentrations, often in twofold steps.

Test [2] relates to Candida albicans (outbreak). The test is described as follows: Broth microdilution test (MIC, colony counts). The class given is cell-based. As to conditions: C. albicans outbreak strain, no antibody, read-out: MIC to fluconazole. Here is the method: as §1, §2, §3, §4, §5

In brackets after ≈: the same amount, converted by molar mass.

Our source for the MIC values is patent US20030180285A1, “Treatment of fungal infections with polyene or beta glucan synthase inhibitor anti-fungals combined with anti hsp90 antibodies” (priority 2000, published 2003).

With `OC(Cn1cncn1)(Cn1cncn1)c1ccc(F)cc1F` [Fluconazole, fluconazole], the values for the MIC in test [1] and in test [2] were 25 µg/mL (≈ 81.6 µM) and 1.56 µg/mL (≈ 5.09 µM), respectively.

The MIC is the smallest concentration in the dilution series that meets the test's criterion for growth inhibition.
